This is one part of the list. Repeats in this data set agree poorly, so a single value says little.
System: MDA-MB-468
Experiment: phospho-S6 immunofluorescence (DAPI-normalised), per-plate z-score; higher = higher phospho-S6 signal (less pathway suppression)
Settings: 24 h
Protocol: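 GPCR-targeted compound library (MedChemExpress HY-L006) tested on MDA-MB-468 PTEN-null TNBC cells in 384-well plates at 0.1, 1 or 10 uM, combined with vehicle, GDC0941 450 nM or lapatinib 1 uM, for 24 h. Phospho-S6 (S240/244) immunofluorescence normalised to DAPI and expressed as a per-plate z-score; values are the mean of biological triplicates.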

[1] = compound 0.1 µM, co-treatment: GDC0941 450 nM
[2] = compound 0.1 µM, co-treatment: lapatinib 1 uM
[3] = compound 0.1 µM, co-treatment: vehicle
[4] = compound 1 µM, co-treatment: GDC0941 450 nM
[5] = compound 1 µM, co-treatment: lapatinib 1 uM
[6] = compound 1 µM, co-treatment: vehicle
[7] = compound 10 µM, co-treatment: GDC0941 450 nM
[8] = compound 10 µM, co-treatment: lapatinib 1 uM
[9] = compound 10 µM, co-treatment: vehicle

SMILES	phospho-S6 immunofluorescence (z-score) [1]	phospho-S6 immunofluorescence (z-score) [2]	phospho-S6 immunofluorescence (z-score) [3]	phospho-S6 immunofluorescence (z-score) [4]	phospho-S6 immunofluorescence (z-score) [5]	phospho-S6 immunofluorescence (z-score) [6]	phospho-S6 immunofluorescence (z-score) [7]	phospho-S6 immunofluorescence (z-score) [8]	phospho-S6 immunofluorescence (z-score) [9]
COCCCN1CCC(NC(=O)c2cc(Cl)c(N)c3c2OCC3)CC1 [Prucalopride (succinate)]	-1.12	-1.06	-0.84	-0.88	-1.12	-1.12	-1.08	-0.3	-1.84
CCNC1(C(N)=O)CCN(c2ncnc3c2nc(-c2ccccc2Cl)n3-c2ccc(Cl)cc2)CC1 [Otenabant]	-0.32	0.54	0.21	-0.9	-0.14	0.88	–	–	–
CC(N)(C(=O)O)c1ccc(C(=O)O)cc1 (racemic)	0.77	0.74	0.38	0.51	-0.15	0.82	0.62	0	0.84
NCCc1c[nH]cn1 [Histamine]	0.69	0.57	-0.13	-0.45	-0.07	-0.23	0	1.34	0.58
COC(c1ccccc1)(c1ccccc1)[C@H](Oc1nc(C)cc(C)n1)C(=O)O [Ambrisentan]	1.04	0.25	-0.4	0.57	0.01	0.55	1.18	0.5	-0.07

From the supplement of paper PMC7411640
